The subject of this test is HepG2 tumor. Nature of the test: Example 2: tumor volume, tumor weight and TGI in HepG2 tumor bearing humanized mice. In kind it is in vivo, Mus musculus. To be noted: G3 OBI-3424 (1 mg/kg). As for the experimental part:
1. Species: Mus musculus • Strain: Advanced immunodeficiency mouse. • (NOD.CgPrkdc^scid Il2rg) • Source: Trineo Biotechnology Co., LTD.
Each group contains six mice. The human hepatocellular carcinoma cell line HepG2 were subcutaneously inoculated to the advanced immune-deficiency mice. Total of 42 mice were included in this study.
2.2. […] The subcutaneous injection volume was […].
3.1. […] The injection was performed using insulin syringe with the dosage of 0.3 mg/kg or 1 mg/kg and the injection volume was 5 mL/kg. […] The reference item was administered for G1. The procedure followed the standards of sample administration. The starting day of test item administration was denoted as the first experimental day (DO).
3.2. […] The injection was performed using insulin syringe with the dosage of 20 mg/kg and injection volume of 10 mL/kg. […] The procedure followed the standards of sample administration.
The measurement was performed from the next day of the inoculation. The tumor volumes were measured and recorded twice a week (Mon., Thur.). Tumor volume was calculated by ellipsoid equation according to the records ((major axis×minor axis×minor axis)×(π/6)).
Tumor volumes were used to calculate tumor growth inhibition (TGI) rates according to the following formula: TGI (%)=[1−(Ti−T0)/(Ci−C0)]×100, where Ti and Ci indicate the mean tumor volume in the treatment groups and vehicle group at the end of the experiment (Day 30). Whereas, T0 and C0 indicate the mean tumor volumes in the treatment group and vehicle group at the beginning of the experiment (Day 0).
Mice were sacrificed by CO2 euthanasia at the end of the study duration, and the connective tissue around tumor was resected. The tumor samples were then weighed and cut equally into three sections if the tumor weight over 400 mg. The tumor tissue was prepared for the isolation of tumor-infiltrating lymphocytes (TILs). The rest of one section was fixed in 10% formaldehyde and embedded in paraffin; the other was stored at a temperature below −70° C.

“And” between values parts separate entries of the source, which are not always exact repeats. Equal entries are not always repeated. Further values from the same series stand in other lists.

As for `C[C@H](OP(=O)(N1CC1)N1CC1)c1ccc([N+](=O)[O-])c(Oc2cccc(C(=O)N(C)C)c2)c1` [OBI-3424, (S)-1-(3-(3-N,N-dimethylaminocarbonyl)phenoxyl-4-mtrophenyl)-1-ethyl-N,N′-bis(ethylene)phosphoramidate], the Tumor volume is 294.7 mm^3 (D0, group Mean); 233.0 mm^3 and 306.6 mm^3 and 332.7 mm^3 (D0, individual animals, 1 mg/kg); 299.1 mm^3 (D2, group Mean); 238.8 mm^3 and 310.3 mm^3 and 334.6 mm^3 (D2, individual animals, 1 mg/kg); 303.6 mm^3 (D6, group Mean); 240.6 mm^3 and 312.8 mm^3 and 338.1 mm^3 (D6, individual animals, 1 mg/kg). For the same molecule, the Tumor volume was 365.9 mm^3 (D9, group Mean); 301.7 mm^3 and 337.3 mm^3 and 416.4 mm^3 (D9, individual animals, 1 mg/kg); 385.7 mm^3 (D13, group Mean); 342.7 mm^3 and 352.9 mm^3 and 422.6 mm^3 (D13, individual animals, 1 mg/kg); 418.2 mm^3 (D16, group Mean); 343.3 mm^3 and 354.8 mm^3 and 429.4 mm^3 (D16, individual animals, 1 mg/kg). The Tumor volume runs as follows: (D20, group Mean) 414.4 mm^3; (D20, individual animals, 1 mg/kg) 343.7 mm^3 and 355.2 mm^3 and 425.6 mm^3; (D23, group Mean) 380.6 mm^3; (D23, individual animals, 1 mg/kg) 343.7 mm^3 and 355.2 mm^3 and 360.3 mm^3; (D27, group Mean) 315.0 mm^3; (D27, individual animals, 1 mg/kg) 327.7 mm^3 and 252.6 mm^3 and 341.1 mm^3. Also, the Tumor volume was 216.9 mm^3 (D30, group Mean); 197.1 mm^3 and 145.5 mm^3 and 262.8 mm^3 (D30, individual animals, 1 mg/kg).

The record behind these values is patent US20240216401A1, “COMBINATION THERAPY BY USING AKR1C3-ACTIVATED COMPOUND WITH IMMUNE CHECKPOINT INHIBITOR” (OBI Pharma, Inc., priority 2021, published 2024).
